# No constants are given. Whether binding was seen depends on the method and setting. In cells and extracts the contact can be indirect. For some assays here: A result given as binding can be weak or reduced; the word gives no strength.
# Amino acid sequences for entries named in this document (tags omitted). A change or cut given only in a name is not applied to a line headed by its entry.
# UniProt Q6IP62: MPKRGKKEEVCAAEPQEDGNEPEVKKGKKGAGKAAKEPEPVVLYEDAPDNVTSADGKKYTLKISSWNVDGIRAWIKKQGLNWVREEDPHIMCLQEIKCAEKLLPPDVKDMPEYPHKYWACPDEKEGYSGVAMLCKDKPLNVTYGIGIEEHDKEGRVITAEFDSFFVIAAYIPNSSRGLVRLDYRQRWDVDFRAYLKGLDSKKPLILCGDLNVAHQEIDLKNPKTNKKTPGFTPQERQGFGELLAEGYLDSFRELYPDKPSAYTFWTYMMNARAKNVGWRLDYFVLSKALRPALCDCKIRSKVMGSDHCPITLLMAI
# Key:
# [1] = target: GST-tagged recombinant Xenopus APE1, wild type (Xenopus laevis) (UniProt Q6IP62); assay: pull-down; 10 μg GST or GST-tagged protein added to 50 μL HSS diluted with 150 μL Interaction buffer (100 mM NaCl, 5 mM MgCl2, 10% glycerol, 0.1% Nonidet P-40, 20 mM Tris-HCl pH 8.0), 4 °C; glutathione beads; immunoblotting of bead-bound fraction; only the target purified
# [2] = target: GST-APE1-ΔNT34 (Xenopus APE1 lacking the N-terminal 34 amino acids) (Xenopus laevis); assay: as above
binder,measurement,setting,value
"endogenous Xenopus Mre11 (protein, UniProt Q9W6K1 1-711) MSSSSSSLDDEDTFKILVATDIHLGFMEKDAVRGNDSFVAFDEILRLAQDNEVDFLLLGGDLFHDNKPSRRTLHICLEQLRKYCMGDRPIEFEVLSDQSVNFGYSKFPWVNYQDNNLNISLPVFSVHGNHDDPTGADALCALDILSSAGLVNHFGRATSVEKIDISPVLLQKGHSKIALYGLGSIPDERLYRMFVNKQVMMLRPREDESSWFNLFVIHQNRSKHGPTNYIPEQFLDEFLDLVIWGHEHECKIAPTRNEQQLFYVSQPGSSVATSLSPGEAEKKHVGLLRIKGKKMNMQKIPLQTVRQFFIEDLVLSDYPDIFNPDNPRVTQEIETFCIEKVEAMLDTAERERLGNPRQPDKPLIRLRVDYTGGFEPFNTLRFSQKFVDRTANPKDIIHFFRHKEQKDKKDSITINFGKIDSKPLLEGTTLRVEDLVKEYFKTAEKNVQLSLLTERGMGEAVQEFVDKEEKDALEELVKFQLEKTQRFLKERHIDAEEEKIDEEVRKFRETRKTNTNEEDEEVREAIQRARTHRSQAPDVEMSDEDDDALLRKVSLSDDEDVRASMPARGRGRGRARGGRGQSTTTRGTSRRGRGSASADQPSSGRATKATGKNMSILDAFKPSSRQPTARNVAKKTYSEDIEDDDSDLEEVSFTPSSVIESRRTSSTSTSYSRKSTQPQSQATKAHFFDDDDDEEDFDPFKKSGPSRRGRR",binding,[1],binds
same,binding,[2],no binding (tested: 10 μg GST-tagged protein)
